We go through 10 molecules from US20220153839A1.

Chains of the proteins cited; added tags and fusions are not shown. Lines headed by an entry give the natural chain unless they say otherwise; changes in a name come on top. Residues count along the entry.
UniProt Q01973: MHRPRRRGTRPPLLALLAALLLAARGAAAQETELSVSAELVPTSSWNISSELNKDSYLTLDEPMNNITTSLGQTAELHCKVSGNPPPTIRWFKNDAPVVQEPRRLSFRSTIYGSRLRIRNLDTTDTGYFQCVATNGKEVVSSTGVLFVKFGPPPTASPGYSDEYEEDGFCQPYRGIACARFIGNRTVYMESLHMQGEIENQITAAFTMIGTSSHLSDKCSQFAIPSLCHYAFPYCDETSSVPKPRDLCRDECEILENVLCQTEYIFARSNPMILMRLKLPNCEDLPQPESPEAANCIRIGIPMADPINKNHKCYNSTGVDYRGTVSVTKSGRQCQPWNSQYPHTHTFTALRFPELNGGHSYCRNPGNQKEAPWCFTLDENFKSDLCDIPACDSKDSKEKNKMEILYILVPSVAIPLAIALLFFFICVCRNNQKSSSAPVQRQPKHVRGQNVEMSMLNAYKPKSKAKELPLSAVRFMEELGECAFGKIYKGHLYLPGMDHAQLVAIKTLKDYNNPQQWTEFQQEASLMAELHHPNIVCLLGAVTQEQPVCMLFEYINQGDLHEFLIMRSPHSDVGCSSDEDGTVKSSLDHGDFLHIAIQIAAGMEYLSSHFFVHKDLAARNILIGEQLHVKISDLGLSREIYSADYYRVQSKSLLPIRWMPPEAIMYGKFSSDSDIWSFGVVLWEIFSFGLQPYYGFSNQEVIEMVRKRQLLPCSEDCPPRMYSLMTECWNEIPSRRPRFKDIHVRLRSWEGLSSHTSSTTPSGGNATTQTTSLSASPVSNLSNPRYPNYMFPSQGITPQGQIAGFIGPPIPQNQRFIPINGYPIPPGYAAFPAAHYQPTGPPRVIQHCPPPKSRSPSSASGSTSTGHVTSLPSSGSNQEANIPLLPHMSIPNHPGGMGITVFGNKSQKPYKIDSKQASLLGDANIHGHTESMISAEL
human ROR1, full length, on cells: residues 30-937 of Q01973
purified extracellular domain of hROR1 (Western blot, FIG. 9 lane 3): residues 30-406 of Q01973
Ig + Fr: residues 42-299 of Q01973

Assay [1] addresses purified extracellular domain of hROR1 (Western blot, FIG. 9 lane 3) (human) (UniProt Q01973). Briefly: Western blot of denatured, reduced samples; IgG1 2 µg/mL; anti-human Fcγ-HRP. A general note: A western blot detects proteins with antibodies after separation by electrophoresis.
For assay [2], the target named is human ROR1, full length, on cells (human) (UniProt Q01973). The description is as above.
The target is the same in assay [3]. Briefly: flow cytometry; IgG1 100 ng/100 µL; APC goat anti-human Fcγ. A general note: A flow cytometer gives signals particle by particle.
The target is the same in assay [4]. The assay is described as follows: Western blot, lysate of K562 cells expressing full length hROR1.
The target is the same in assay [5]. Briefly: Retrogenix cell microarray, IgG1 at 2 µg/mL.
The target in assay [6] is purified extracellular domain of hROR1 (Western blot, FIG. 9 lane 3) (human) (UniProt Q01973). The assay is described as follows: Western blot, purified extracellular domain of hROR1.
For assay [7], the target named is human ROR1, full length, on cells (human) (UniProt Q01973). The assay is described as follows: flow cytometry, chimeric IgG1 on MDA-MB-231 cells.
Assay [8] has the same target. The assay is described as follows: Retrogenix cell microarray, fixed HEK293 cells expressing the protein, anti-human IgG Fc detection.
Assay [9] has the same target. The assay is described as follows: Western blot, denatured and reduced protein, IgG1 at 2 µg/mL.
Assay [10] shares this target. Briefly: cell microarray (Retrogenix): fixed HEK293 cells over-expressing the protein, spotted in duplicate; AlexaFluor647 anti-human IgG Fc detection.
The target of the next assay is Ig + Fr (human) (UniProt Q01973). Briefly: ELISA on directly coated hFc fusion proteins of hROR1 domains; Fab detected with anti-His-HRP; A405. On the technique in general: In an ELISA, binding on a coated surface is turned into a signal by an enzyme label.

No constants are given. Whether binding was seen depends on the method and setting. Some results given as binding are weak or reduced against the parent protein; the word gives no strength.

B1: XBR1-402 chimeric rabbit/human IgG1 (antibody, V domains shown)
VH: QEQQKESGGGLFKPTDTLTLTCTASGFDISSYYMSWVRQAPGNGLEWIGAIGISGNAYYASWAKSRSTITRNTNLNTVTLKMTSLTAADTATYFCARDHPTYGMDLWGPGTLVTVSS
VL: SYELTQLPSVSVSLGQTARITCEGNNIGSKAVHWYQQKPGLAPGLLIYDDDERPSGVPDRFSGSNSGDTATLTISGAQAGDEADYYCQVWDSSAYVFGGGTQLTVTG
On to B1, for which the binding entry in [1], in assay [2], in assay [3], in assay [4], in assay [5] and in assay [6] was “binds” each time. The binding result in [7], in [8], in assay [9] and in [10] was “binds” throughout.

B2: ERR1-TOP22 chimeric rabbit/human Fab (Fab, V domains shown)
VH: QSLEESGGRLVTPGTPLTLTCTVSGFSLSSYYMSWVRQAPGKGLEWIGTISSSGSTYYASWVKGRFTISKTSTTVDLKMTSLTTEDTATYFCARDLDYDMDLWGPGTLVTVSS
VL: SYELTQLPSVSVSLGQTARITCGGNSIGSKAVHWYQQKPGLAPGLLIYNDDERPSGVPDRFSGSNSGDTATLTISGAQAGDEADYYCQLWDNNAAVFGGGTQLTVTG
On to B2, for which the binding result with Ig + Fr (human) is given as “binds”.

B3: XBR1-402 chimeric rabbit/human Fab (Fab, V domains shown)
VH: QEQQKESGGGLFKPTDTLTLTCTASGFDISSYYMSWVRQAPGNGLEWIGAIGISGNAYYASWAKSRSTITRNTNLNTVTLKMTSLTAADTATYFCARDHPTYGMDLWGPGTLVTVSS
VL: SYELTQLPSVSVSLGQTARITCEGNNIGSKAVHWYQQKPGLAPGLLIYDDDERPSGVPDRFSGSNSGDTATLTISGAQAGDEADYYCQVWDSSAYVFGGGTQLTVTG
On to B3, for which the binding entry with Ig + Fr (human) is on record as “binds”.

B4: ERR1-409 chimeric rabbit/human Fab (Fab, V domains shown)
VH: QEQLVESGGRLVTPGGSLTLTCTASGFSLSSYYMGWVRQAPGKGLEWIGTIYGGSGSTWYASWVKGRFTISKTSTAVDLKITSLTTEDTATYFCARSYPGWTTEPYFDIWGPGTLVTVSS
VL: QFVLTQPQSVSGSLGQTVSISCNRDSGNIEDYYVHWYQQHPGKAPTTVIYNDDQRPSGVPDRFSGSIDSTSNSASLTITGLLAEDEADYYCLSSDSSAYVFGGGTQLTVTG
Turning to B4, in the assay with Ig + Fr (human), the binding entry was “binds”.

B5: ERR1-301 chimeric rabbit/human Fab (Fab, V domains shown)
VH: QEQLEESGGGLVTPGGSLTLTCTASGFTISTYHMSWVRQAPGKGLEWIGSIYAGSGSTYYASWVNGRFTISSNTTQNTVSLQMNSLTVADTATYFCARDHPSYGMDLWGPGTLVTVSS
VL: SYELTQLPSVSVSLGQTARITCGGNSIGSKAVNWYQQKPGLAPGLLIYDDDERPSGVPDRFSASNSGDTATLTISGAQAEDEADYYCQLWDSSAVAYVFGGGTQLTVTG
In the case of B5, in the assay with Ig + Fr (human), the binding result is “binds”.

B6: ERR1-403 chimeric rabbit/human Fab (Fab, V domains shown)
VH: QEQLKESGRGLVQPGGSLKLSCKASGFDFSGWYMTWVRQAPGKGLEWIGTIGTTKGRTYYASWVNGRFTISSNAQNTVDLQMNSLTAADRATYFCVRGSDYFDLWGPGTLVTISS
VL: SYELTQLPSVSVSLGQTARITCGGNSIGSKAVNWYQQKPGLAPGLLIYDDDERPSGVPARFSGSNSGDTATLTISGAQAGDEADYYCQLWDSSAGAYVFGGGTQLTVTG
On to B6, for which the binding result in the assay with Ig + Fr (human) is on record as “binds”.

B7: ERR1-TOP54 chimeric rabbit/human Fab (Fab, V domains shown)
VH: QSLEESGGRLVTPGTPLTLTCTASGFSLSDYYMSWVRQAPGEGLEWIGTIYGGSGNTWYATWAKGRFTISKTSTTVDLKITSPTTEDTATYFCARDFGLSTGGLWGPGTLVTISS
VL: SYELTQLPSVSVSLGQTARITCGGNSIGSKAVNWYQQKPGLAPGLLIYDDDERPSGVPDRFSGSNSGDTATLTISGAQAGDEADYYCQLWDSSARAFVFGGGTQLTVTG
As for B7, the binding entry with Ig + Fr (human) is “binds”.

B8: ERR1-TOP15 chimeric rabbit/human Fab (Fab, V domains shown)
VH: QEQLVESGGRLVTPGGSLTLTCAASGFSPSSYWMSWVRQAPGKGLEWIGAIYVDSGSAYYASWAKSRFTISKTSSTTVDLKMTSLTTEDTAIYFCARDGWGSDVWGPGTLVTISS
VL: SYELTQLPSVSVSLGQTARITCGGNSIGSKAVHWYQQKPGLAPGLLIYDDDERPSGVPDRFSGSNSGDTATLTISGAQAGDEADYYCQLWDSSAGAYVFGGGTQLTVTG
On to B8, for which the binding entry in the assay with Ig + Fr (human) is reported as “binds”.

B9: ERR1-316 chimeric rabbit/human Fab (Fab, V domains shown)
VH: QEQLEESGGRLVTPGTPLTLTCTASGFFLSSYYVSWVRQAPGKGLEWIGAIGTGGSAYYASWAKSRSTITRNTNLSTVTLKMTSLTAADTATYFCARDHPNYGMDLWGPGTLVTVSS
VL: SYELTQLPSVSVSLGQTARITCGGNSIGSKAVNWYQQKPGLAPGLLIYDDDERPSGVPDRFSGSNSGDTATLTISGAQAGDEADYYCQLWDSSTGAYAFGGGTQLTVTG
Take B9: in the assay with Ig + Fr (human), the binding entry is “binds”.

B10: ERR1-TOP43 chimeric rabbit/human Fab (Fab, V domains shown)
VH: QSLEESGGRLVTPGTPLTLTCTVSGFSLSSYWMSWVRQAPGKGLEWIGAIYGSGNTYYASWAKGRFTISKTSTTVDLKITSPTTEDTATYFCARDVHSTATDLWGPGTLVTISS
VL: SYELTQLPSVSVSLGQTARITCGGNNIGSKAVNWYQQKPGLAPGLLIYNDDERPSGVPDRFSGSNSGDTATLTISGAQAGDEADYYCQLWDSSAGAYVFGGGTQLTVTG
For the molecule B10, the binding result with Ig + Fr (human) is on record as “binds”.
